Reference: the supplement of paper PMC10849652
The list shows a part of the results.

Chains of the proteins cited; added tags and fusions are not shown. Lines headed by an entry give the natural chain unless they say otherwise; changes in a name come on top.
UniProt O43716: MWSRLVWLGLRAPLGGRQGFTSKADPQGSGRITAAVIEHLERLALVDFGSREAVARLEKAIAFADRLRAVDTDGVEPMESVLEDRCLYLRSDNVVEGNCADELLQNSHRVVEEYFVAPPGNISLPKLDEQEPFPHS
UniProt Q14697: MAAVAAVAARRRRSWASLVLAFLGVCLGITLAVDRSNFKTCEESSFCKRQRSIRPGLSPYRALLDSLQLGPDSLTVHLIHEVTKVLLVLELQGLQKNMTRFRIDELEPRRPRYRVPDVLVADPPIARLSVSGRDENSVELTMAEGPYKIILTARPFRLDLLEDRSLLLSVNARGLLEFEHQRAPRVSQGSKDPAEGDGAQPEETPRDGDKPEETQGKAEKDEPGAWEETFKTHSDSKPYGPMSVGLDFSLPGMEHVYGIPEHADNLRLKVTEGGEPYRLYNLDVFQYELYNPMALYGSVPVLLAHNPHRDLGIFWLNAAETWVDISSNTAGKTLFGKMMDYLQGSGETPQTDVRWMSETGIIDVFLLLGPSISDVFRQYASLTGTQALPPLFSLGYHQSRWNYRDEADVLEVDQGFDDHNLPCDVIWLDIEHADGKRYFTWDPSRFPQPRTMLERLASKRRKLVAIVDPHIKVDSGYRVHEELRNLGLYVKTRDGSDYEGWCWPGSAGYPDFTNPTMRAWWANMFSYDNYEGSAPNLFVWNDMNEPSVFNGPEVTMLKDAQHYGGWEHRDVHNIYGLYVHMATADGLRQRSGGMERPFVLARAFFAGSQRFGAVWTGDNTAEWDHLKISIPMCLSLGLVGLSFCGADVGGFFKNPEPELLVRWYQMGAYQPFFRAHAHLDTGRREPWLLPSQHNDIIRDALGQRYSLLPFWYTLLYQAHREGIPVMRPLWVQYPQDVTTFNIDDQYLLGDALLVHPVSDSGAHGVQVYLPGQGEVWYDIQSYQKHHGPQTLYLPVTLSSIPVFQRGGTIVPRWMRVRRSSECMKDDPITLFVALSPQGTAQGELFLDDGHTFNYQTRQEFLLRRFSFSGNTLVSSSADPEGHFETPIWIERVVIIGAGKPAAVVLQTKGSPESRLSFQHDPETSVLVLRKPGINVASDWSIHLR
UniProt Q96CN9: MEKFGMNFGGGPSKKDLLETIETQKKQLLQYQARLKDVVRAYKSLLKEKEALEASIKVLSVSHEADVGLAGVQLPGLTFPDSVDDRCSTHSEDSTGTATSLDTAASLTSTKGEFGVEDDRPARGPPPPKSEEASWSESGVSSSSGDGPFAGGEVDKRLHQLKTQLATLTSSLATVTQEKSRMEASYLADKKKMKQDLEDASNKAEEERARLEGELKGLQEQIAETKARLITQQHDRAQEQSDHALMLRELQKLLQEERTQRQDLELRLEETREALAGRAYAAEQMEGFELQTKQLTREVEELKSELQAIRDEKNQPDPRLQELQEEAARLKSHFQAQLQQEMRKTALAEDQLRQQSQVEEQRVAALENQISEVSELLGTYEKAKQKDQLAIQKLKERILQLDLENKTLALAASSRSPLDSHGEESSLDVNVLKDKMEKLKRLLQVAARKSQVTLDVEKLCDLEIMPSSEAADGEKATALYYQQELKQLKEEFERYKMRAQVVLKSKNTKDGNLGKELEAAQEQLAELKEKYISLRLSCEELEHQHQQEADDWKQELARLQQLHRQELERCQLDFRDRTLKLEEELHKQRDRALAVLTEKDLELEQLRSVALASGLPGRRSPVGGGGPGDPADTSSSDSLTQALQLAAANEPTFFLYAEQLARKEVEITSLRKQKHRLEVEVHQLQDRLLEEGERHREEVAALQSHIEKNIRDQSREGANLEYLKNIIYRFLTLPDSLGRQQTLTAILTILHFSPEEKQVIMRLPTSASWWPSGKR
UniProt Q8WXI9: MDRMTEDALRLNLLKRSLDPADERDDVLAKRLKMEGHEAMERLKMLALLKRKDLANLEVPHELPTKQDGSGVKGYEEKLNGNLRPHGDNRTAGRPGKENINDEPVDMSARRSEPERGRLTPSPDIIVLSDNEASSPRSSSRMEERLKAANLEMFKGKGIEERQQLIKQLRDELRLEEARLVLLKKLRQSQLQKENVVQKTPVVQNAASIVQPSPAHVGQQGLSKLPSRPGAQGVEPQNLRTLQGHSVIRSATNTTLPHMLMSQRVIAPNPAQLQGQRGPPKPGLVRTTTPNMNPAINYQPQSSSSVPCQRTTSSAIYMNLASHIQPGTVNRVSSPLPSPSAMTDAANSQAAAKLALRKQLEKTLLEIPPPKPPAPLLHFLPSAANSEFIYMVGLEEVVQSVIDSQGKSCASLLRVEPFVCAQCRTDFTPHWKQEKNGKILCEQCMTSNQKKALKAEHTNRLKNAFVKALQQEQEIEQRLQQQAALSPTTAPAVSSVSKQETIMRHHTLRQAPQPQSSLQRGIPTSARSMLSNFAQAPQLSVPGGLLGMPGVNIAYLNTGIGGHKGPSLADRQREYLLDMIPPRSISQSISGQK
UniProt P0CL80: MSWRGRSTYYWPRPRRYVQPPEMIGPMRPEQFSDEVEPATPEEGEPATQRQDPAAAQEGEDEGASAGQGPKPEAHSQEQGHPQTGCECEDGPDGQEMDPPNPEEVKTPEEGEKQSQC
UniProt P19526, whole entry, looked up: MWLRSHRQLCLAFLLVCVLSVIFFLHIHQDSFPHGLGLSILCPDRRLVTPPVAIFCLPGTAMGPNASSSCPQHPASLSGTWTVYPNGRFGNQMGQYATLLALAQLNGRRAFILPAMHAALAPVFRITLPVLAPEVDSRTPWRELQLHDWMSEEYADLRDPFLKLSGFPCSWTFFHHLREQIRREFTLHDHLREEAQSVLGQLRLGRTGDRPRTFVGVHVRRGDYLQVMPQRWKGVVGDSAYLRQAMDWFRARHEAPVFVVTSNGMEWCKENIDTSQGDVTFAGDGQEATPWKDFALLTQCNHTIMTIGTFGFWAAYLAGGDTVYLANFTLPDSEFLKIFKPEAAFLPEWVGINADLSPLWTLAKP
UniProt Q969S9: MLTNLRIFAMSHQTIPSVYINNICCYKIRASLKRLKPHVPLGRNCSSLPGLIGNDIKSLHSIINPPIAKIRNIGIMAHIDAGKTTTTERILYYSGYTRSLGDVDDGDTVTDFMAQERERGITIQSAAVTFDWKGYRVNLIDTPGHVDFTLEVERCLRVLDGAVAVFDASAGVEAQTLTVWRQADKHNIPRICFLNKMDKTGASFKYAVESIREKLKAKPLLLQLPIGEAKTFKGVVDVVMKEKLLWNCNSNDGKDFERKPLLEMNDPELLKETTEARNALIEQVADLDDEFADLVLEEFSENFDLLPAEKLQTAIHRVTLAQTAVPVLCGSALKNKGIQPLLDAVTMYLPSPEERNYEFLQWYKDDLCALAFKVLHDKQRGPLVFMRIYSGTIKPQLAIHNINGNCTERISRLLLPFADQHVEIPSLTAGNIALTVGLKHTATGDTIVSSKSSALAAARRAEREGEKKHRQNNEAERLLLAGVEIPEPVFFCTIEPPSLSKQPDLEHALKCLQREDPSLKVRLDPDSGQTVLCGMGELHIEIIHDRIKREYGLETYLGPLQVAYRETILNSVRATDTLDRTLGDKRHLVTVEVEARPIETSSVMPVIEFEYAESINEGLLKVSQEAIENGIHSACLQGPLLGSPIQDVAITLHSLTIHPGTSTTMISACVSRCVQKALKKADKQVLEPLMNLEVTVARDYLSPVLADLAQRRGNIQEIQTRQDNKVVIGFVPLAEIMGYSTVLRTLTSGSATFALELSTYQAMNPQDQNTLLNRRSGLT
UniProt Q9UET6: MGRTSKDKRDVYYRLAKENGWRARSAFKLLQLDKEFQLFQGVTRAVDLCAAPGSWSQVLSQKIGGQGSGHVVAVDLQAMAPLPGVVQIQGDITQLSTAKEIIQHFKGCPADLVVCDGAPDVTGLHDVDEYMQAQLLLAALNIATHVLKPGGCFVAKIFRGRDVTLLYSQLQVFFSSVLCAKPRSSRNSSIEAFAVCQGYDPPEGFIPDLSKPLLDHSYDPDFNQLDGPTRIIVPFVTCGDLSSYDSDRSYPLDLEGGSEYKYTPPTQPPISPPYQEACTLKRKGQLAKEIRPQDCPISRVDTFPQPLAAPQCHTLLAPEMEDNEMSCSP
UniProt P01275: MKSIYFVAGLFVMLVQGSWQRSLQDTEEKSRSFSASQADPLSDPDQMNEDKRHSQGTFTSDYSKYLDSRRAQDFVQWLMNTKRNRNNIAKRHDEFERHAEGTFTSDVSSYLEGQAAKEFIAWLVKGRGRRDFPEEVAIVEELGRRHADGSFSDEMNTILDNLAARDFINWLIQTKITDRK
UniProt Q14393: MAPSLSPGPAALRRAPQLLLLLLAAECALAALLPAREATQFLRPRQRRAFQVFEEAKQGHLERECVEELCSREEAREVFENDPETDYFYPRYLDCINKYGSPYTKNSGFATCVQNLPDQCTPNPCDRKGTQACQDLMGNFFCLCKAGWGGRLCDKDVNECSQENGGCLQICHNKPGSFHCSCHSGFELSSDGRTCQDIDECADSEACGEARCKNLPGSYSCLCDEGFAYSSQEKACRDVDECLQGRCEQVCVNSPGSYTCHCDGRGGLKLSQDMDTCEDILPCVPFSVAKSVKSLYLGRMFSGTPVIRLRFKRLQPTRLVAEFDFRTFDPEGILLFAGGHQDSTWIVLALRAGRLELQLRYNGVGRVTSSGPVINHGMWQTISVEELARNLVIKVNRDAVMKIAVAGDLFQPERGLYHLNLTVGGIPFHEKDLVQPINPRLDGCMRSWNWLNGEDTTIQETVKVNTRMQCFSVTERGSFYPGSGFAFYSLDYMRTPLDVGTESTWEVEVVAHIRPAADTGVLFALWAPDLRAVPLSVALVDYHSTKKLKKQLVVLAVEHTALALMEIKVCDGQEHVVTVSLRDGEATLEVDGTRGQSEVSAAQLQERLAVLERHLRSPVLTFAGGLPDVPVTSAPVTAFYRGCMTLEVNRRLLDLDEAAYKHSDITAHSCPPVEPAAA
UniProt P23769: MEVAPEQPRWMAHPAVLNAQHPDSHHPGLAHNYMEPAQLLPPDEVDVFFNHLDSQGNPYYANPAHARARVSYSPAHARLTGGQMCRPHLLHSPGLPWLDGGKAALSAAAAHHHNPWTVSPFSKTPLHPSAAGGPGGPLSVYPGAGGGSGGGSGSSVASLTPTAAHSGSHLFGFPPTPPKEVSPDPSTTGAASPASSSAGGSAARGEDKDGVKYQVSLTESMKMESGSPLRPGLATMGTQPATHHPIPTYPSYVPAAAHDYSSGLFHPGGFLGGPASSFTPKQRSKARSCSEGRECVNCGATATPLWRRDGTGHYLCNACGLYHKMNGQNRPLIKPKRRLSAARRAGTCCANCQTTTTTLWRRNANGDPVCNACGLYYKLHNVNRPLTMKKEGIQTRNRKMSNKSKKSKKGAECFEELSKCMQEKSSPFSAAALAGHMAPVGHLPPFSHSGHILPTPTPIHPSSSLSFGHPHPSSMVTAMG
UniProt Q9H840: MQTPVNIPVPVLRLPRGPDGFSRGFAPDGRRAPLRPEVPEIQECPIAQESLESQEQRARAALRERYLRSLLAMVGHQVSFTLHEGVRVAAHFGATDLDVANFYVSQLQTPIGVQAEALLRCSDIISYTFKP
UniProt P27469: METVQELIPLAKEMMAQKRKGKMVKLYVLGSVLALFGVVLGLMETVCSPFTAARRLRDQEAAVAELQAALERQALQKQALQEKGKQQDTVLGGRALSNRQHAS
UniProt Q14435: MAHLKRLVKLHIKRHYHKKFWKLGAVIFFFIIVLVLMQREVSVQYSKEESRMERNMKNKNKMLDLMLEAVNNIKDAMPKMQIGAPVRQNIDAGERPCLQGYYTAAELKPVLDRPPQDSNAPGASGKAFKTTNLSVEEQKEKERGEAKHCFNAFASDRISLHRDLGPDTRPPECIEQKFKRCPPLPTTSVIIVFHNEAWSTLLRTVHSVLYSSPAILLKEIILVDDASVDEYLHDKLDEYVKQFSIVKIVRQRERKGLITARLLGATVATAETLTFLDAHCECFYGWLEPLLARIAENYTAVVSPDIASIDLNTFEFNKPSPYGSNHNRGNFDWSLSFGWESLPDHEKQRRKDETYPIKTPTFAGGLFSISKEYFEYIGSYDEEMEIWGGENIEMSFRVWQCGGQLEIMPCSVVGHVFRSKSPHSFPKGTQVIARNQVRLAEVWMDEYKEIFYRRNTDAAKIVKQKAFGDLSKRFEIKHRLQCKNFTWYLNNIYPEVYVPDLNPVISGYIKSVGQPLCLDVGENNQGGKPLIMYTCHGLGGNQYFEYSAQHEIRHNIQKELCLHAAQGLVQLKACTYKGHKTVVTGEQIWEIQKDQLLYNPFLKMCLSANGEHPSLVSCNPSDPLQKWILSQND
UniProt Q9NWZ8: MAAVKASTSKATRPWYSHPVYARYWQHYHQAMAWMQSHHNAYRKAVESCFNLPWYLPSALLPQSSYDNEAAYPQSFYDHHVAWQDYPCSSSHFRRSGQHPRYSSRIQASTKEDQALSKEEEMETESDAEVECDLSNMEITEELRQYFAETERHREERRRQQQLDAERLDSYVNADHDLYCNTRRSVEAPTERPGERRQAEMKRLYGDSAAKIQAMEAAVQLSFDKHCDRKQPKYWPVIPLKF

Experiments:
Experiment in all cases: log2 fold change, soluble protein after heating vs DMSO (PISA); higher = thermal stabilisation; K562 cells, 10 uM, 30 min; active = over 0.2 and 3.5 SD of the protein, either way, in both replicates (recomputed)
[1] = compound: COC1=CC=C(C=C1)CN2C=CC3=C2C=C(C=C3)C(=O)NO
In short: (§1)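 For each measurement, 10 μM compound was applied for 30 min to K562 cells at 2×10^6 cells/mL. Aliquots were heated for 3 min across 48°C-58°C, pooled, and extracted in PBS with 0.5% NP-40 at 4°C; the supernatant after 21,000xg for 90 min was soluble protein. This was quantified by TMTpro 16plex LC-MS/MS with channel sums equalised, and thermal stability was reported relative to control samples from duplicates, on a log2 fold-change scale.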

[2] = compound: CON(C)C(=O)N1N=C(c2cc(F)ccc2F)S[C@@]1(CCCN)c1ccccc1 [filanesib]
In short: as §1

[3] = compound: CO[C@H]1C[C@@H]2CC[C@@H](C)[C@@](O)(O2)C(=O)C(=O)N2CCCC[C@H]2C(=O)O[C@H]([C@H](C)C[C@@H]2CC[C@H](n3cnnn3)[C@H](OC)C2)CC(=O)[C@H](C)/C=C(\C)[C@@H](O)[C@@H](OC)C(=O)[C@H](C)C[C@H](C)/C=C/C=C/C=C/1C [zotarolimus]
In short: as §1

[4] = compound: COc1cc(Nc2ncc3c(n2)-c2ccc(Cl)cc2C(c2c(F)cccc2OC)=NC3)ccc1C(=O)O [alisertib]
In short: as §1

[5] = compound: COc1cc2ncnc(Nc3ccc(F)c(Cl)c3)c2cc1OCCCN1CCOCC1 [gefitinib]
In short: as §1

[6] = compound: COc1cccc2cc(-c3nc([C@H]4CC[C@H](C(=O)O)CC4)n4ncnc(N)c34)[nH]c12
In short: as §1

[7] = compound: COc1cc2nc(-c3cc(F)ccc3O)nc(N[C@@H]3CNC[C@H]3C(C)(C)O)c2cc1OC
In short: as §1

[8] = compound: CS(=O)(=O)CCNCc1ccc(-c2ccc3ncnc(Nc4ccc(OCc5cccc(F)c5)c(Cl)c4)c3c2)o1 [lapatinib]
In short: as §1

[9] = compound: CS(=O)(=O)N1CCN(Cc2cc3nc(-c4cccc5[nH]ncc45)nc(N4CCOCC4)c3s2)CC1 [pictilisib]
In short: as §1

[10] = compound: COc1cc(C(=O)O)ccc1NC(=O)[C@@H]1N[C@@H](CC(C)(C)C)[C@](C#N)(c2ccc(Cl)cc2F)[C@H]1c1cccc(Cl)c1F [idasanutlin]
In short: as §1

Measured: log2 fold change

FUOM (UniProt A2VDF0)
inactive: [1] -0.097 | [2] 0.017 | [3] 0.1 | [4] 0.349 | [5] -0.069 | [6] 0.14

GFOD1 (UniProt Q9NXC2)
inactive: [1] -0.921 | [7] 0.259 | [8] -1.04 | [9] -0.018

FOXO3 (UniProt O43524)
inactive: [1] 0.027 | [2] -0.069 | [3] 0.083 | [10] 0.154 | [4] 0.149 | [7] -0.067 | [6] -0.068 | [8] -0.106 | [9] -0.09

GATC (UniProt O43716)
inactive: [1] -0.112 | [3] -0.04 | [10] -0.149 | [4] 0 | [7] -0.234 | [5] -0.04 | [6] 0.112 | [8] 0 | [9] 0.015

GANAB isoform 2 (UniProt Q14697)
inactive: [1] 0.019 | [2] 0.038 | [3] 0.052 | [10] 0.022 | [4] -0.128 | [7] -0.001 | [5] -0.017 | [6] -0.079 | [8] 0.039 | [9] -0.083

GATB (UniProt O75879)
inactive: [1] 0.185 | [2] 0.047 | [10] -0.464 | [4] -0.047 | [7] 0.282 | [5] 0.046 | [6] 0.013 | [8] -0.225 | [9] 0.34

GCC1 (UniProt Q96CN9)
inactive: [1] 0.026 | [5] -0.19 | [9] -0.152

FOPNL (UniProt Q96NB1)
inactive: [1] -0.01 | [2] 0.168 | [3] 0.03 | [10] 0.042 | [4] -0.041 | [7] -0.12 | [5] 0.331 | [6] -0.039 | [8] -0.038 | [9] 0.024

FOXRED2 (UniProt Q8IWF2)
inactive: [1] -0.035 | [3] -0.152 | [10] -0.039 | [4] -0.251 | [7] -0.06 | [6] 0.015 | [8] 0.01

GATAD2B (UniProt Q8WXI9)
inactive: [1] 0.205 | [2] 0.03 | [4] -0.15 | [7] -0.05 | [6] -0.075 | [8] 0.054

GC isoform 3 (UniProt P02774)
inactive: [1] -0.717 | [2] 0.228 | [3] 0.022 | [10] -0.058 | [7] -0.237 | [5] -0.068 | [8] 0.264 | [9] 0.231

GAGE12F (UniProt P0CL80)
inactive: [1] -0.007 | [2] 0.02 | [3] -0.054 | [10] 0.055 | [4] -0.312 | [7] -0.02 | [5] -0.03 | [6] 0.123 | [8] -0.028 | [9] 0.108

GAA (UniProt P10253)
inactive: [1] -0.135 | [2] -0.107 | [10] 0.042 | [4] 0.21 | [6] 0.243 | [9] 0.128

Reprinted from the listing (2 entries):
FOXRED2 (UniProt Q8IWF2)
inactive: [1] -0.035 | [3] -0.152 | [10] -0.039 | [4] -0.251 | [7] -0.06 | [6] 0.015 | [8] 0.01

GATAD2B (UniProt Q8WXI9)
inactive: [1] 0.205 | [2] 0.03 | [4] -0.15 | [7] -0.05 | [6] -0.075 | [8] 0.054

Further entries:

FOXJ2 (UniProt Q9P0K8)
inactive: [3] -0.179

GANC (UniProt Q8TET4)
inactive: [5] -0.066

GABPB1 isoform 3 (UniProt Q06547)
inactive: [3] 0.331 | [4] 0.036 | [7] -0.008 | [6] -0.002 | [8] -0.212 | [9] -0.175

FUT1 (UniProt P19526)
inactive: [2] 0.008

GAPDH isoform 2 (UniProt P04406)
inactive: [4] 0.054 | [6] 0.167

GFM2 (UniProt Q969S9)
inactive: [4] -0.228 | [6] 0.002

FRYL isoform 2 (UniProt O94915)
inactive: [3] 0.092 | [10] -0.023 | [7] -0.169 | [8] 0.228

FRMD8 (UniProt Q9BZ67)
inactive: [3] -0.126 | [10] 0.154 | [5] 0.075

GDPGP1 (UniProt Q6ZNW5)
inactive: [3] 0.291 | [10] 0.098 | [4] -0.012 | [7] -0.097 | [5] -0.03 | [6] 0.099 | [8] 0.137

GGACT (UniProt Q9BVM4)
inactive: [4] -0.013 | [6] 0.029

FUT10 isoform 2 (UniProt Q6P4F1)
inactive: [9] -0.044

FRY (UniProt Q5TBA9)
inactive: [2] 0.072 | [10] -0.109 | [4] 0.158 | [6] -0.106 | [9] 0.258

FYTTD1 (UniProt Q96QD9)
inactive: [3] -0.007 | [10] 0.156 | [9] -0.024

FTSJ1 isoform 2 (UniProt Q9UET6)
inactive: [2] 0.019

GCG (UniProt P01275)
inactive: [3] -0.118

GANAB (UniProt Q14697)
inactive: [4] -0.122 | [7] 0.052 | [6] -0.099 | [8] -0.413

GAGE1 (UniProt Q13065)
inactive: [4] 0.177 | [5] 0.067 | [6] -0.025

GAS6 isoform 1 (UniProt Q14393)
inactive: [2] 0.147 | [9] 0.02

GATA2 (UniProt P23769)
inactive: [2] 0.264 | [3] 0.029 | [10] 0.011 | [4] 0.083 | [7] 0.111 | [5] -0.073 | [6] -0.075 | [8] 0.027 | [9] 0.078

GID4 (UniProt Q8IVV7)
inactive: [2] -0.089 | [3] 0.013 | [10] -0.023 | [4] -0.074 | [7] 0.097 | [5] -0.067 | [6] 0.01 | [8] -0.14 | [9] 0.024

FRMPD3 (UniProt Q5JV73)
inactive: [3] -0.293

GCFC2 isoform 3 (UniProt P16383)
inactive: [7] -0.111 | [8] 0.034

GEMIN7 (UniProt Q9H840)
inactive: [4] -0.344 | [6] 0.078 | [9] -0.168

G0S2 (UniProt P27469)
inactive: [4] 0.124 | [6] -0.094

FTSJ3 (UniProt Q8IY81)
inactive: [2] 0.377 | [3] 0.254 | [10] 0.316 | [7] -0.086 | [8] 0.104 | [9] -0.387

FUNDC1 (UniProt Q8IVP5)
inactive: [2] -0.193 | [4] 0.011 | [7] -0.138 | [6] 0.172 | [8] 0.101

FZD1 (UniProt Q9UP38)
inactive: [2] -0.06 | [3] 0.258 | [5] -0.274

FZD5 (UniProt Q13467)
inactive: [2] 0.04 | [4] -0.056 | [7] 0.018 | [6] 0.067 | [8] -0.152

G6PC3 (UniProt Q9BUM1)
inactive: [4] -0.182 | [7] 0.012 | [5] 0.125 | [6] -0.116 | [8] 0.076

GDPD3 (UniProt Q7L5L3)
inactive: [10] 0.063 | [7] 0.008 | [8] -0.073 | [9] -0.041

GALNT3 (UniProt Q14435)
inactive: [9] -0.129

GEMIN8 (UniProt Q9NWZ8)
inactive: [3] -0.011 | [10] 0.132 | [7] 0.36 | [5] 0.163 | [8] 0.03

GCFC2 (UniProt P16383)
inactive: [2] -0.078 | [3] 0.071 | [10] 0.04 | [4] -0.078 | [7] 0.085 | [5] -0.029 | [6] 0.088 | [8] 0.044 | [9] -0.04

GFAP isoform 2 (UniProt P14136)
inactive: [4] 0.395 | [6] 0.281 | [9] 0.133
